The experiment deals with T1, endogenous ERGIC-53 secreted from JUNV C#1 infected or mock infected HEK cells (Homo sapiens) (UniProt P49257).
T1 sequence: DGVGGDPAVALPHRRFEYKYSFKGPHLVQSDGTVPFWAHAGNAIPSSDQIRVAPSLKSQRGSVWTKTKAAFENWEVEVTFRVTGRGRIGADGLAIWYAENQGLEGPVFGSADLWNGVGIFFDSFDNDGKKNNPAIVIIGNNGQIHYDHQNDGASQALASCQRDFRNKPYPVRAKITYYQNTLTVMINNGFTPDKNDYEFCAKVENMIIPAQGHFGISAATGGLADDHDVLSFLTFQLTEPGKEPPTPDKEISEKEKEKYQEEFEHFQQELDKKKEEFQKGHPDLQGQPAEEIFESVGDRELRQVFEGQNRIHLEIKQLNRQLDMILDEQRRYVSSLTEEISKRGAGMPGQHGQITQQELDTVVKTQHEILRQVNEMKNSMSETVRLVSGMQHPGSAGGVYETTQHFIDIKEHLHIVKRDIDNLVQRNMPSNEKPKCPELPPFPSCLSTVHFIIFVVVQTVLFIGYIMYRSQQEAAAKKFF
Nature of the experiment: co-immunoprecipitation from culture supernatant, Western blot. A general note: In western blotting, separated proteins are transferred to a membrane and probed.

Binding data for 1 molecule are collected here from patent publication US20190127441A1.

These are yes or no findings as the source states them, for the method shown. In cells and extracts the contact can be indirect. Some binding calls cover weakened binding; strength is not graded here. Tags and fused reporters may be left off the sequences shown.

B1: soluble recombinant MCFD2 (sMCFD2), 6x His and MYC tagged, purified from HEK293T supernatant (protein)
chain: EEPAASFSQPGSMGLDKNTVHDQEHIMEHLEGVINKPEAEMSPQELQLHYFKMHDYDGNNLLDGLELSTAITHVHKEEGSEQAPLMSEDELINIIDGVLRDDDKNNDGYIDYAEFAKSLQ
In the case of B1, the binding result is given as “binds”.
